## Library screen at single concentrations

Protein sequences, listed by entry. Tags and fused reporters are not part of them.
UniProt P9WNZ1, whole entry: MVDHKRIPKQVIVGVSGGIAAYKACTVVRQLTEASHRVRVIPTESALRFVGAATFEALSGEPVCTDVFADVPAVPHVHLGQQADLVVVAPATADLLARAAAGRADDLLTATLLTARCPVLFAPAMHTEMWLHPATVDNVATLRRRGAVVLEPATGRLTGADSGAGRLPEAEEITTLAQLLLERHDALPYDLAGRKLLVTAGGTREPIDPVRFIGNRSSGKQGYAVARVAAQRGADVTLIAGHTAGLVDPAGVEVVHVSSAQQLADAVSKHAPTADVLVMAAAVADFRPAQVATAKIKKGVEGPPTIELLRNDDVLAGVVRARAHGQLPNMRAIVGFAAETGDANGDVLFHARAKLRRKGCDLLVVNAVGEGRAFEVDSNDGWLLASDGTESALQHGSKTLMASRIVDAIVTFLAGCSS
UniProt P9WFT3, whole entry: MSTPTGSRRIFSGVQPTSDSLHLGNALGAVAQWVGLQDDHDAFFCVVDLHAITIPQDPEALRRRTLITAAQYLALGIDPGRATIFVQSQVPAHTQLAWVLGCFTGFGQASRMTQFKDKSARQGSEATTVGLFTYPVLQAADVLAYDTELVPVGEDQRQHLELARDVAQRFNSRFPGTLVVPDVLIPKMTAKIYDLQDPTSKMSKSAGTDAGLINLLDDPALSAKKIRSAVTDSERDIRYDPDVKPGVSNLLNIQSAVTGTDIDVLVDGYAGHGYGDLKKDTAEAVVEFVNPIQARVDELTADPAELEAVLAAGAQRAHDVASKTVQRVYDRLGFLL

Source: ChEMBL document CHEMBL3988442, “University of Dundee, Small-Polar-MMV Screening Library” (2021).

CoaBC: 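Coenzyme A biosynthesis protein CoaBC, Mycobacterium tuberculosis (UniProt P9WNZ1). Enzyme assay of CoaBC with a phosphate dye (Biomol Green) read at 650 nm. Compounds at 30 µM. Direction is inferred from only a few compounds that gave an IC50; most scored high, so higher reads as stronger inhibition. Most strong results did not repeat in a second test. Of about 67,000 compounds tested this way, about 40 (0.06%) reached 50% or more in at least one test.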
MtTrpRS: 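Tryptophan-tRNA ligase, Mycobacterium tuberculosis (UniProt P9WFT3). Enzyme assay of tryptophanyl-tRNA synthetase; the read-out is not stated. Compounds at 10 µM. Higher most likely means stronger inhibition; the record gives no direction and few retests gave an IC50. Size under these conditions: about 65,000 compounds, about 64 of them at 50% or above in at least one test.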

Results are given as percent effect.
The record does not define 0% and 100%; most values in the screen are far below 50% and negative numbers occur (in some assays of this library far below -100).
Compounds were drawn at random from those tested, without regard to their results.

* Cc1ccc(CNc2ccn(CCc3ccncc3)n2)s1 : MtTrpRS: 4.025%
* O=C(Cc1ccc(O)c(F)c1)N1CCC2(CCNCC2)CC1 : CoaBC: 0.8264%; MtTrpRS: -3.979%
* NC(=O)c1ccccc1NC(=O)CCN1CCN(CCO)CC1 : CoaBC: -2.658%; MtTrpRS: -0.1356%
* O=C1CC[C@H]2[C@H](CCN2Cc2ccccn2)N1CC1CCOCC1 : CoaBC: 0.7255%; MtTrpRS: 2.519%
* CC(C)NC(=O)NC[C@H]1OC[C@@H](NCc2ccncc2)[C@@H]1O : CoaBC: 6.452%; MtTrpRS: -2.881%
* c1cnc(NCc2cncc3c2CCN(Cc2ccsc2)C3)nc1 : CoaBC: 7.107%; MtTrpRS: 0.7407%
* COCCC(=O)N1Cc2cnc(Cc3ccc(OC)cc3)nc2C1 : CoaBC: 8.848%; MtTrpRS: -6.942%
* CN(CCc1cnn(C)c1)C(=O)Cn1c(=O)[nH]c2ccccc21 : CoaBC: 2.286%; MtTrpRS: 6.163%
* COc1ccc(CC(=O)NC2(C#N)CCOCC2)c(Cl)c1 : CoaBC: -1.734%; MtTrpRS: 1.364%
* Cc1cc(C)c(CNC(=O)NCCOc2ccc3c(c2)CCC3)c(=O)[nH]1 : CoaBC: 4.787%; MtTrpRS: -1.572%
* COc1cccc(C2CCN2C(=O)c2cc(C(C)C)on2)c1 (stereo not drawn) : CoaBC: 1.653%; MtTrpRS: 2.805%
* CCc1[nH]c2c(CNc3cncc(C(=O)N(C)C)n3)cc(C)cc2c1C : CoaBC: 3.137%; MtTrpRS: -6.23%
* O=C(c1ccoc1)N1CCC(Nc2cccnn2)CC1 : CoaBC: 3.484%; MtTrpRS: -3.505%
* Cc1cccc2c(=O)n(C(C)Cc3cccnc3)cnc12 (stereo not drawn) : CoaBC: -0.7453%; MtTrpRS: 3.303%
* CN(C)CC(=O)N1CCOCC2(C1)CN(c1ccccc1)C(=O)CO2 (stereo not drawn) : CoaBC: 0.8883%; MtTrpRS: -0.7345%
* O=c1[nH]c(CN(Cc2ccco2)C2CCCC2)nc2ccccc12 : CoaBC: 4.819%; MtTrpRS: 1.679%
* Cn1cnnc1Sc1ccc(NC(=O)C2CC2)cc1Cl : CoaBC: 16.92%; MtTrpRS: 2.407%
* CCc1nc(C2CCCN2c2ncc(C(N)=O)cc2Cl)no1 (stereo not drawn) : CoaBC: -1.927%; MtTrpRS: -3.964%
* CCCc1nc(C(=O)N2CCCn3nc(CCC(=O)O)cc3C2)cs1 : CoaBC: -2.345%; MtTrpRS: -2.554%
* CC(C#N)CSc1ccccc1NCC(=O)Nc1ccccc1 (stereo not drawn) : CoaBC: -4.167%; MtTrpRS: -3.792%
* OCCn1nccc1C1CCN(Cc2nc(C3CC3)no2)CC1 : CoaBC: -0.2273%; MtTrpRS: -3.115%
* Cc1cc(O)n2nc(C3CCN(C(=O)c4ccccn4)CC3)cc2n1 : CoaBC: -22.52%; MtTrpRS: 25.65%
* CN1C(=O)C2(CCN(CC3CC3)CC2)c2ccccc21 : CoaBC: 8.74%; MtTrpRS: -4.446%
* c1csc(-c2noc(C3CCCOC3)n2)c1 (stereo not drawn) : CoaBC: 9.13%; MtTrpRS: -0.867%
* COCc1noc(-c2nn(-c3ccc(F)c(F)c3)c3c2CCC3)n1 : CoaBC: 2.056%; MtTrpRS: -1.102%
* CC(C)S(=O)(=O)Cc1cccc(NC(=O)c2ccc[nH]2)c1 : CoaBC: 4.752%; MtTrpRS: -3.381%
* COc1ccccc1C1(O)CCCN(C(=O)c2ccnn2C(C)C)C1 (stereo not drawn) : CoaBC: -5.226%; MtTrpRS: -6.861%
* COCCNC(=O)Cc1cnc(-n2cccc2)s1 : CoaBC: 3.418%; MtTrpRS: -0.000006%
* CC(C)N1C[C@@H](CO)[C@H](c2ccccc2)S1(=O)=O : CoaBC: 3.313%
* Cc1nc(C(C)C)ncc1C(=O)N1CCC(c2ccccc2C(=O)O)C1 (stereo not drawn) : CoaBC: -2.609%; MtTrpRS: -3.763%

3 of the entries, repeated:

For CCCc1nc(C(=O)N2CCCn3nc(CCC(=O)O)cc3C2)cs1 the result was CoaBC: -2.345%; MtTrpRS: -2.554%.
For O=C(c1ccoc1)N1CCC(Nc2cccnn2)CC1 the result was CoaBC: 3.484%; MtTrpRS: -3.505%.
For NC(=O)c1ccccc1NC(=O)CCN1CCN(CCO)CC1 the result was CoaBC: -2.658%; MtTrpRS: -0.1356%.